PubChem BioAssay AID2685 (National Center for Advancing Translational Sciences (NCATS), 2010)
Out of some 320,000 compounds screened, about 2,100 (0.66%) were called active. The shares of active, inactive and inconclusive entries below differ from those in the screen. The call rests on the fitted dose curve; in most records, active means well fitted inhibition curve with a large enough effect in the signal ratio, with a control signal flat (not every such curve was filed as active); inconclusive means small, poorly fitted or top-dose-only effect, or effect the other way, or a change in a side signal; inactive means flat fitted curve, though single readings scatter; the % refers to the signal ratio. Potencies beside an inconclusive call are fits to weak or partial responses and may not hold up.

Assay: qHTS Assay for Lipid Storage Modulators in Drosophila S3 Cells
Conditions: BODIPY lipid droplet fluorescence, 18-24 h, cells fed with added oleic acid; lipid storage change, negative = inhibition: at 46.1 µM (top of the series) unless noted
How it was run: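 Drosophila S3 cells loaded with oleic acid (400 uM, as added) and compounds at several concentrations; lipid droplets imaged by 488-nm laser-scanning cytometry, 500–530 nm intensity and object ratio to cell channel. Percent activity normalized to 20 uM Triacsin C.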
On the % scale 0 is the no-effect control and ±100 the full control effect; potency means the concentration at half of the fitted maximal effect.

Row | SMILES | Potency | lipid storage change, negative = inhibition | outcome
1 | CN(Cc1ccccc1)S(=O)(=O)c1ccc2c(c1)OCCO2 | inconclusive: 25.9 µM [activator, partial curve, poor fit] | – | –
2 | N#C[C@@H]1N(Cc2ccccc2)C(=O)[C@H]2CC3C=CC21O3 (some centres undefined) | inconclusive: 2.59 µM [activator, full curve] | – | –
3 | COc1cccc(/C=C2\N=C3CCCCCN3C2=O)c1 | – | inconclusive: 0.876% | –
4 | COC(=O)CCCC1=CC2=CC(=O)C(C)(OC(=O)CCc3ccccc3)C(=O)C2=CO1 (centres undefined) | – | inconclusive: -4.66% | –
5 | O=C(CN1CCN(S(=O)(=O)c2ccc(F)c(F)c2)CC1)Nc1ccccc1C(=O)NC1CC1 | – | inconclusive: -20.2% | –
6 | CCn1c(SCC(=O)c2ccccc2)nc2sc3c(c2c1=O)CCN(C)C3 | – | inconclusive: -0.718% | –
7 | CCOC(=O)C1CCN(C(=O)c2ccc3c(c2)NC(=O)/C(=C\c2cccc(C)c2)S3)CC1 | inconclusive: 3.66 µM [falling, partial curve] | – | –
8 | Cc1cccc(NS(=O)(=O)c2ccc(C)c(C(=O)N(C)C)c2)c1 | inconclusive: 29.1 µM [activator, single point] | – | –
9 | COc1ccccc1C(CC(=O)Nc1ccc(Cl)cc1)c1ccc(OC(C)C)cc1 (centres undefined) | – | inconclusive: -7.7% | –
10 | Fc1ccc(Nc2nc(Oc3ccc4c(c3)OCO4)nc(N3CCOCC3)n2)c(F)c1 | – | inconclusive: 25.2% | –
11 | CCCOc1ccc(N2C(=O)CC(N(CCCO)C(=O)CC)C2=O)cc1 (centres undefined) | – | inconclusive: -14.8% | –
12 | Cc1ccc(NS(=O)(=O)c2ccc(Br)s2)nc1 | – | inconclusive: -24% | –
13 | O=C(CSc1ccccn1)N1CCN(S(=O)(=O)c2ccc(Cl)cc2)CC1 | – | inconclusive | –
14 | COc1ccccc1C(=O)Nc1c(C)cc(Br)cc1C | – | inconclusive: 8.36% | –
15 | CC(=O)c1c(C)[nH]c(C(=O)Nc2cccc(C#N)c2)c1C | inconclusive: 20.6 µM [falling, single point] | – | –
16 | CC1=N/C(=C/c2ccc([N+](=O)[O-])cc2)C(=O)N1c1ccc(Cl)cc1Cl | inconclusive: 6.51 µM [activator, single point] | – | –
17 | COc1ccccc1C(=O)NCC(c1ccco1)N1CCc2ccccc21 (centres undefined) | – | inconclusive: 21.3% | –
18 | O=C(CSc1nnc(COc2ccccc2)o1)N1CCCCC1 | – | inconclusive: 176% | –
19 | Cc1ccc2c(c1)c1c(n2CCc2ccc(C)nc2)CCN(C)C1 | inconclusive: 6.51 µM [activator, single point] | – | –
20 | COC(=O)C1=C(C)NC(C)=C(C(=O)OC)C1c1cc2ccc(C)cc2[nH]c1=O | – | inconclusive: 36.5% | –
21 | Cc1cc(-c2nnc3n2N=C(C(C)(C)C)CS3)n[nH]1 | – | inconclusive: 14.9% | –
22 | O=C(Nc1nccs1)c1cc2c(s1)CCCCC2 | – | inconclusive: 0.304% | –
23 | Cc1ccc(NC(=O)c2cc(CC(C)C)nc3ccccc23)cc1 | – | inconclusive: 19.4% | –
24 | Cc1onc(-c2ccccc2Cl)c1C(=O)N1CCN(c2ncccn2)CC1 | inconclusive: 0.103 µM [falling, full curve, poor fit] | – | –
25 | CC(=O)Nc1ccc(S(=O)(=O)Oc2ccc(/C=N/NC(=O)c3ccc(Cl)cc3)cc2)cc1 | – | inconclusive: -5.13% | –

Look-ups from above.
COC(=O)C1=C(C)NC(C)=C(C(=O)OC)C1c1cc2ccc(C)cc2[nH]c1=O | lipid storage change, negative = inhibition: inconclusive: 36.5%
Cc1ccc(NC(=O)c2cc(CC(C)C)nc3ccccc23)cc1 | lipid storage change, negative = inhibition: inconclusive: 19.4%
COc1ccccc1C(CC(=O)Nc1ccc(Cl)cc1)c1ccc(OC(C)C)cc1 (centres undefined) | lipid storage change, negative = inhibition: inconclusive: -7.7%
Cc1cccc(NS(=O)(=O)c2ccc(C)c(C(=O)N(C)C)c2)c1 | Potency: inconclusive: 29.1 µM [activator, single point]

Following part.

Row | SMILES | Potency | lipid storage change, negative = inhibition | outcome
26 | CCc1cc(=O)oc2cc(C)cc(OC(C)C(=O)NCCCn3ccnc3)c12 (centres undefined) | inconclusive: 0.651 µM [falling, full curve] | – | –
27 | COc1ccc(-c2nnc3ccc(SC)nn23)cc1 | – | inconclusive: 5.4% | –
28 | Cc1cc(NC2CCCCC2)nc(N2CCOCC2)n1 | – | inconclusive: 10.6% | –
29 | Cc1ccc2sc(NNC(=O)C3=COCCO3)nc2c1C | – | inconclusive: 18.2% | –
30 | CN1C(C(=O)NCc2cccc(Br)c2)CC2Cn3c(nc4cc5ccccc5cc43)C21 (centres undefined) | – | inconclusive: 11.9% | –
31 | Clc1ccccc1CSc1nnc(Cn2cnc3ccccc32)n1-c1ccccc1 | – | inconclusive: -5.37% | –
32 | Cc1cccc(/C=C2/Sc3ccc(C(=O)NCCN4CCCC4)cc3NC2=O)c1 | inconclusive: 29.1 µM [falling, single point] | – | –
33 | COCC(C)OC(=O)c1c(N)n(-c2ccc(OC)c(OC)c2)c2nc3ccccc3nc12 (centres undefined) | – | inconclusive: -7.89% | –
34 | CCOC(=O)CSc1nc(N)c(C#N)cc1C#N | – | inconclusive: -1.28% | –
35 | CCOC(=O)C1=C(CC)OC(N)=C(C#N)C1c1ccsc1 (centres undefined) | – | inconclusive: 9.7% | –
36 | Cc1ccc(O)c(C(=O)c2cc(C#N)c3nc4ccccc4n3c2)c1 | – | inconclusive: 3.81% | –
37 | CCCCn1c(N)c(N(CCOC)C(=O)CSCc2cccc(C)c2)c(=O)[nH]c1=O | inconclusive: 3.26 µM [activator, full curve] | – | –
38 | Cc1nn(-c2ccccc2)c(C)c1/C=N/NC(=O)CSc1nnc(SCc2ccc(Cl)cc2)s1 | – | inconclusive: -10.1% | –
39 | O=S(=O)(Nc1cccnc1)c1ccc(C2CCCCC2)cc1 | – | inconclusive: 227% | –
40 | CCOC(=O)CN(C(=O)CSc1nnc(CNc2ccc(C)cc2C)n1CC)c1ccccc1 | – | – | inactive [at 46.1 µM]
41 | COc1ccc(NC(=O)CSc2ccc(-c3cccnc3)nn2)cc1 | – | inconclusive: 19.6% | –
42 | CC1=CCC2C(=O)N(c3cccc(C(=O)NCc4ccccc4)c3)C(=O)C2C1 (centres undefined) | – | inconclusive: 89.4% | –
43 | Cc1cc(C)cc(NC(=O)CN2CCC(NC(=O)c3ccccc3F)CC2)c1 | inconclusive: 6.51 µM [activator, partial curve] | – | –
44 | CCOc1ccccc1C(=O)NCC(=O)Nc1ccc2c(c1)OCO2 | – | inconclusive: -8.01% | –
45 | CC(C)C(NC(=O)C12CC3CC(CC(C3)C1)C2)C(=O)O (centres undefined) | – | inconclusive: -130% | –
46 | Cc1ccc2c(c1)c1nnc(SCC(=O)Nc3ccc(N(C)C)cc3)nc1n2CC(=O)O | inconclusive: 6.51 µM [falling, single point] | – | –
47 | CC(C)OC(=O)/C(=C\c1ccc2c(c1)c1ccccc1n2C)NC(=O)c1ccccc1 | – | inconclusive: -71.8% | –
48 | CN1CCN(CCC(=O)N/N=C/C=C2\N(C)c3ccccc3C2(C)C)CC1 | – | inconclusive: -56.9% | –
49 | Cc1cc2nc(-c3ccc(SCc4ccc(C#N)cc4)nc3)[nH]c2cc1C | – | inconclusive: -31.2% | –
